We go through one molecule from paper PMC11703099.

No constants are given. Whether binding was seen depends on the method and setting. Some entries that bind do so weakly or less than the wild type.

The target of the test is T1, N-terminal domain of ULP-2 (Gal4-DB::ULP-2 bait) (C. elegans) (UniProt Q23238).
T1 sequence: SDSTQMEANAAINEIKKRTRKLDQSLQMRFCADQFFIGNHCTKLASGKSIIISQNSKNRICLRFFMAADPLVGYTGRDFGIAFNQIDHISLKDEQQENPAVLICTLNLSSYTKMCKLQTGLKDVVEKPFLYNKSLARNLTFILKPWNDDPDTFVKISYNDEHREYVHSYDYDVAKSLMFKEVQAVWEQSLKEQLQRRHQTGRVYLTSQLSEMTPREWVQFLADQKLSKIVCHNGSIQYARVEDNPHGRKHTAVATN
Briefly: two-hybrid; directed test: SET-26 fragments in Gal4-AD vector pMB29 (Y8800) mated with Gal4-DB::ULP-2 (Y8930); SC plates lacking leucine, tryptophan and histidine or adenine; 2 mM 3-AT on plates lacking histidine.

B1: N-terminal fragment of SET-26 (residues 1-575, exons 1-4) (domain or fragment, UniProt Q9U263 1-575)
chain: MADGEHTLPADEELFEQPPLQQQQPEIAEPIVMAQEPIQGVSEDPQASEATHEAPDNYPVDHQMENQEFYQEPQIPEPQQIPQIPVFQPAAYNPPNYVAPQQRANNFGEPAAAADSRPLTEEEQLAAERPTEDTVWIDSDDDTDVEEAILRANFWLPYSDHNYDPPDPADRIILPTEGPFPCIAGLDEDCNIVKQWMPEDAVGPGSPGTQYRRNQQTGGGLPSTSVAPQQQQLPVRHNIQNRPMVAAQPFSIGGNQVEYGGIGGMDSRMQQRGVVRDGPQYRVMNDFGNGLPMRGQLPPRNSPAANAINRVREQQQQMYHQAGARGSLQQRVPAPAAPTPGSYQHIVNAVPVGGANPMRRVPPQARPGMIGGAANNNRARPIHVTRPMDTQEFEHPVAPAAAAPPRRVVDVAPHRMTPEQRQELQQMNRQRAAPQFPAAAAQRSAEKIVIQQRPGASSSRAPRPSMAQEDLLRSPTRRLSERVPQEHQTPVLEPRRFQVKVTDTYSTPIPKASDQLPAQLTEEDPPEESAAAAAPEDVPDAAPEDPPKGILKPTPPHRMTQEEKNAHFARLTTDK
As to B1, the binding entry is recorded as “binds”.
